Experimental findings from patent publication US20180236024A1 are described below.

Experiment [1] deals with T1, ULK1 (UniProt O75385).
T1 sequence (looked up): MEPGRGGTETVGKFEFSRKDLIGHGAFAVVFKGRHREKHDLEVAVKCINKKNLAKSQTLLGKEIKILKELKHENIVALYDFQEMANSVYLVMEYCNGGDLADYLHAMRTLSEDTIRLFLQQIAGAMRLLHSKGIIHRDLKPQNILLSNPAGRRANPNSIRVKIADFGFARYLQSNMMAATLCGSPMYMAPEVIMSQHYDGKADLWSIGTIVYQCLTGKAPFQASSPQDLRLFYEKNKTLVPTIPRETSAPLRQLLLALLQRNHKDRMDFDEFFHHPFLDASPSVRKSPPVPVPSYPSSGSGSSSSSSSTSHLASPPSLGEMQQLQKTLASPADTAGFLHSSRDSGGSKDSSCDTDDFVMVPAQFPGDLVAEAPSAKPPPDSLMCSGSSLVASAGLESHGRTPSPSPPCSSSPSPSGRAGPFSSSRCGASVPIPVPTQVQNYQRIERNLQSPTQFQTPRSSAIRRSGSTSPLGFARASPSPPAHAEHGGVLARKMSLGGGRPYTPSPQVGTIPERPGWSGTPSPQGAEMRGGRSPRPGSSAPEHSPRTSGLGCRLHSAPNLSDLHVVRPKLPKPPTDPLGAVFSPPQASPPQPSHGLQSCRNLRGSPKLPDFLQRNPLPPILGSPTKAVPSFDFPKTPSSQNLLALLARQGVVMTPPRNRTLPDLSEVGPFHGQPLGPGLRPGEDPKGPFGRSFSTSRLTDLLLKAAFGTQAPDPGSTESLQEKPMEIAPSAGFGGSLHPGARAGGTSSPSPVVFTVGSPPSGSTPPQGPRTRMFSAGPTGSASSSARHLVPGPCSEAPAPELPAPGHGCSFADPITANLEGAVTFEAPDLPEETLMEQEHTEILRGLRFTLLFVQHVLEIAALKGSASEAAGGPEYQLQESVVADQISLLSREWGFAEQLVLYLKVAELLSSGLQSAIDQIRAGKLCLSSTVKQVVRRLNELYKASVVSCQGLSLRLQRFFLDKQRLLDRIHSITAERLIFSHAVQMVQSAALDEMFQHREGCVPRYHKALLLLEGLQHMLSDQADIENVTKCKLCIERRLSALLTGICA
Kind of experiment: co-IP of GFP-TRIM20 with endogenous ULK1 (figure legend).

Experiment [2] deals with T1, ULK1. Nature of the experiment: co-IP and GST pull-down (figure legend).
The target of experiment [3] is T1, ULK1. Nature of the experiment: co-IP with anti-GFP, HEK293 cells.
Experiment [4] has as its target T2, p-ULK1 (Ser-317) (UniProt O75385).
T2 sequence (phosphoserine at 317, looked up): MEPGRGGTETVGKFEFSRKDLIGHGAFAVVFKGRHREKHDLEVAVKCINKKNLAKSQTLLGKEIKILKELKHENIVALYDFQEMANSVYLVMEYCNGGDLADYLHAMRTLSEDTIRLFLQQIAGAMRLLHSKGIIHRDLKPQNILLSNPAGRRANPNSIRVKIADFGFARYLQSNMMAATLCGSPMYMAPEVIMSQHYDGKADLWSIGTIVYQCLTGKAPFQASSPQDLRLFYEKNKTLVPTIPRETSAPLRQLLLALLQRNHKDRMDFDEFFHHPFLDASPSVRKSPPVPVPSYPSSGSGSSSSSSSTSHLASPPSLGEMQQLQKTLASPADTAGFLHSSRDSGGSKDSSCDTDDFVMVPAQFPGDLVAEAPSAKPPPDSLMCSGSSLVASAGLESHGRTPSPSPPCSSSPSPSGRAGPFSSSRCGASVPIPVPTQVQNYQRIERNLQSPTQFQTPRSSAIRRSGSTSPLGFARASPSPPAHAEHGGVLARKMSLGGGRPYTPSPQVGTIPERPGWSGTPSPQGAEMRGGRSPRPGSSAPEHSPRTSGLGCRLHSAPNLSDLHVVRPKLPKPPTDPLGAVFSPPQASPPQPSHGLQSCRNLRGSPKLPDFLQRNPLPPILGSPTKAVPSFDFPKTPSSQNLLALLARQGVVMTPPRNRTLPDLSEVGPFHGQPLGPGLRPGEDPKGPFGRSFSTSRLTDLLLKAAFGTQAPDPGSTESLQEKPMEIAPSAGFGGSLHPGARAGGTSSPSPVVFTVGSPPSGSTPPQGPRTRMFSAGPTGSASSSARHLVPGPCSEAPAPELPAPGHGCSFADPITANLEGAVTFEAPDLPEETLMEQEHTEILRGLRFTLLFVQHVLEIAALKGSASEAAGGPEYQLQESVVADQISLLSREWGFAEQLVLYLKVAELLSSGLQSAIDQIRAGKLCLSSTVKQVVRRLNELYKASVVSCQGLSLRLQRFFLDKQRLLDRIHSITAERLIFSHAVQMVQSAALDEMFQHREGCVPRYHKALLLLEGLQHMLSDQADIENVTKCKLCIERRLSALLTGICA
Nature of the experiment: co-IP with anti-GFP, HEK293 cells.

In experiment [5] the target is T3, p-ULK1 (Ser-555) (UniProt O75385).
T3 sequence (phosphoserine at 555, looked up): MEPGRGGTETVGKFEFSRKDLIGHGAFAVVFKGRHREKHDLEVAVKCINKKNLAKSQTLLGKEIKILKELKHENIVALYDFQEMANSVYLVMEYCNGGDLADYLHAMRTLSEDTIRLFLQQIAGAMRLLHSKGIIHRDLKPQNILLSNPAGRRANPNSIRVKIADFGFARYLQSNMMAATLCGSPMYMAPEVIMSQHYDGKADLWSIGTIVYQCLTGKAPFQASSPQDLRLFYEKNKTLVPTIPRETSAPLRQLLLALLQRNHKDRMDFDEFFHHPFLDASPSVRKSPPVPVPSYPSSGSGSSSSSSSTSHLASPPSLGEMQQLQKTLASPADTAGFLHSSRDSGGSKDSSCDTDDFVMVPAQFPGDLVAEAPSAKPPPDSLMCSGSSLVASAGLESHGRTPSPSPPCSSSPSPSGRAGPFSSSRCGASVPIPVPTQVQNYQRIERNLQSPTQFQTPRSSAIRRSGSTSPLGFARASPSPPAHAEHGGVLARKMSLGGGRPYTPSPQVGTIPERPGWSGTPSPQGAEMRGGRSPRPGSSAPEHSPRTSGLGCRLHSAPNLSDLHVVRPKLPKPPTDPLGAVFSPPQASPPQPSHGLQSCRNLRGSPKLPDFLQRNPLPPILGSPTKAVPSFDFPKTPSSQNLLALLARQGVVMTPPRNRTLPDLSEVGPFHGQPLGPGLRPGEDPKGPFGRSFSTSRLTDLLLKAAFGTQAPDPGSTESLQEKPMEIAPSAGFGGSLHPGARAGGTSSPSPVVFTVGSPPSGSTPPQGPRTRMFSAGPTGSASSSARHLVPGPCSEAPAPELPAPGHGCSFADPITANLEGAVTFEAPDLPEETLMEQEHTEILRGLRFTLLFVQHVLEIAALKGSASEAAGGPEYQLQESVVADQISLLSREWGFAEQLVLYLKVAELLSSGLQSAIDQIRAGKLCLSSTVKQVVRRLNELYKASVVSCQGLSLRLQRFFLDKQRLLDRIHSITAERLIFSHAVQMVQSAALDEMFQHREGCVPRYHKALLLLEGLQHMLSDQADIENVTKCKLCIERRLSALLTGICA
Kind of experiment: co-IP with anti-GFP, HEK293 cells.

The target of experiment [6] is T2, p-ULK1 (Ser-317). Nature of the experiment: co-immunoprecipitation, HEK293 cells.
Experiment [7] addresses T1, ULK1. Kind of experiment: co-immunoprecipitation, HEK293 cell extracts.
For experiment [8], the target named is T1, ULK1. Kind of experiment: co-IP with anti-GFP, Myc-ULK1, HEK293 cells.

Results are given in words; binding and its absence hold for the method and conditions named. In cells and extracts the contact can be indirect. Some results given as binding are weak or reduced against the parent protein; the word gives no strength. Sequences can lack the tags named with a protein.

B1: GFP-TRIM20 (full-length human TRIM20) (protein, not shown: large carriers)
chain: MAKTPSDHLLSTLEELVPYDFEKFKFKLQNTSVQKEHSRIPRSQIQRARPVKMATLLVTYYGEEYAVQLTLQVLRAINQRLLAEELHRAAIQEYSTQENGTDDSAASSSLGENKPRSLKTPDHPEGNEGNGPRPYGGGAASLRCSQPEAGRGLSRKPLSKRREKASEGLDAQGKPRTRSPALPGGRSPGPCRALEGGQAEVRLRRNASSAGRLQGLAGGAPGQKECRPFEVYLPSGKMRPRSLEVTISTGEKAPANPEILLTLEEKTAANLDSATEPRARPTPDGGASADLKEGPGNPEHSVTGRPPDTAASPRCHAQEGDPVDGTCVRDSCSFPEAVSGHPQASGSRSPGCPRCQDSHERKSPGSLSPQPLPQCKRHLKQVQLLFCEDHDEPICLICSLSQEHQGHRVRPIEEVALEHKKKIQKQLEHLKKLRKSGEEQRSYGEEKAVSFLKQTEALKQRVQRKLEQVYYFLEQQEHFFVASLEDVGQMVGQIRKAYDTRVSQDIALLDALIGELEAKECQSEWELLQDIGDILHRAKTVPVPEKWTTPQEIKQKIQLLHQKSEFVEKSTKYFSETLRSEMEMFNVPELIGAQAHAVNVILDAETAYPNLIFSDDLKSVRLGNKWERLPDGPQRFDSCIIVLGSPSFLSGRRYWEVEVGDKTAWILGACKTSISRKGNMTLSPENGYWVVIMMKENEYQASSVPPTRLLIKEPPKRVGIFVDYRVGSISFYNVTARSHIYTFASCSFSGPLQPIFSPGTRDGGKNTAPLTICPVGGQGPD
On to B1, for which the binding entry in experiment [1], in experiment [2], in experiment [3], in experiment [4], in experiment [5] and in experiment [6] was “binds” each time. For the same molecule, in experiment [7], the binding entry is “binds”.

B2: GFP-TRIM20 triple mutant (M680I+M694V+V726A) (protein, not shown: large carriers)
chain: MAKTPSDHLLSTLEELVPYDFEKFKFKLQNTSVQKEHSRIPRSQIQRARPVKMATLLVTYYGEEYAVQLTLQVLRAINQRLLAEELHRAAIQEYSTQENGTDDSAASSSLGENKPRSLKTPDHPEGNEGNGPRPYGGGAASLRCSQPEAGRGLSRKPLSKRREKASEGLDAQGKPRTRSPALPGGRSPGPCRALEGGQAEVRLRRNASSAGRLQGLAGGAPGQKECRPFEVYLPSGKMRPRSLEVTISTGEKAPANPEILLTLEEKTAANLDSATEPRARPTPDGGASADLKEGPGNPEHSVTGRPPDTAASPRCHAQEGDPVDGTCVRDSCSFPEAVSGHPQASGSRSPGCPRCQDSHERKSPGSLSPQPLPQCKRHLKQVQLLFCEDHDEPICLICSLSQEHQGHRVRPIEEVALEHKKKIQKQLEHLKKLRKSGEEQRSYGEEKAVSFLKQTEALKQRVQRKLEQVYYFLEQQEHFFVASLEDVGQMVGQIRKAYDTRVSQDIALLDALIGELEAKECQSEWELLQDIGDILHRAKTVPVPEKWTTPQEIKQKIQLLHQKSEFVEKSTKYFSETLRSEMEMFNVPELIGAQAHAVNVILDAETAYPNLIFSDDLKSVRLGNKWERLPDGPQRFDSCIIVLGSPSFLSGRRYWEVEVGDKTAWILGACKTSISRKGNITLSPENGYWVVIMVKENEYQASSVPPTRLLIKEPPKRVGIFVDYRAGSISFYNVTARSHIYTFASCSFSGPLQPIFSPGTRDGGKNTAPLTICPVGGQGPD
For the molecule B2, the binding entry in experiment [8] is “binds”.

B3: GFP-TRIM20 M694V (protein, not shown: large carriers)
chain: MAKTPSDHLLSTLEELVPYDFEKFKFKLQNTSVQKEHSRIPRSQIQRARPVKMATLLVTYYGEEYAVQLTLQVLRAINQRLLAEELHRAAIQEYSTQENGTDDSAASSSLGENKPRSLKTPDHPEGNEGNGPRPYGGGAASLRCSQPEAGRGLSRKPLSKRREKASEGLDAQGKPRTRSPALPGGRSPGPCRALEGGQAEVRLRRNASSAGRLQGLAGGAPGQKECRPFEVYLPSGKMRPRSLEVTISTGEKAPANPEILLTLEEKTAANLDSATEPRARPTPDGGASADLKEGPGNPEHSVTGRPPDTAASPRCHAQEGDPVDGTCVRDSCSFPEAVSGHPQASGSRSPGCPRCQDSHERKSPGSLSPQPLPQCKRHLKQVQLLFCEDHDEPICLICSLSQEHQGHRVRPIEEVALEHKKKIQKQLEHLKKLRKSGEEQRSYGEEKAVSFLKQTEALKQRVQRKLEQVYYFLEQQEHFFVASLEDVGQMVGQIRKAYDTRVSQDIALLDALIGELEAKECQSEWELLQDIGDILHRAKTVPVPEKWTTPQEIKQKIQLLHQKSEFVEKSTKYFSETLRSEMEMFNVPELIGAQAHAVNVILDAETAYPNLIFSDDLKSVRLGNKWERLPDGPQRFDSCIIVLGSPSFLSGRRYWEVEVGDKTAWILGACKTSISRKGNMTLSPENGYWVVIMVKENEYQASSVPPTRLLIKEPPKRVGIFVDYRVGSISFYNVTARSHIYTFASCSFSGPLQPIFSPGTRDGGKNTAPLTICPVGGQGPD
Take B3: in experiment [8], the binding result is reported as “binds”.

B4: GFP-TRIM20 double mutant (M680I+M694V) (protein, not shown: large carriers)
chain: MAKTPSDHLLSTLEELVPYDFEKFKFKLQNTSVQKEHSRIPRSQIQRARPVKMATLLVTYYGEEYAVQLTLQVLRAINQRLLAEELHRAAIQEYSTQENGTDDSAASSSLGENKPRSLKTPDHPEGNEGNGPRPYGGGAASLRCSQPEAGRGLSRKPLSKRREKASEGLDAQGKPRTRSPALPGGRSPGPCRALEGGQAEVRLRRNASSAGRLQGLAGGAPGQKECRPFEVYLPSGKMRPRSLEVTISTGEKAPANPEILLTLEEKTAANLDSATEPRARPTPDGGASADLKEGPGNPEHSVTGRPPDTAASPRCHAQEGDPVDGTCVRDSCSFPEAVSGHPQASGSRSPGCPRCQDSHERKSPGSLSPQPLPQCKRHLKQVQLLFCEDHDEPICLICSLSQEHQGHRVRPIEEVALEHKKKIQKQLEHLKKLRKSGEEQRSYGEEKAVSFLKQTEALKQRVQRKLEQVYYFLEQQEHFFVASLEDVGQMVGQIRKAYDTRVSQDIALLDALIGELEAKECQSEWELLQDIGDILHRAKTVPVPEKWTTPQEIKQKIQLLHQKSEFVEKSTKYFSETLRSEMEMFNVPELIGAQAHAVNVILDAETAYPNLIFSDDLKSVRLGNKWERLPDGPQRFDSCIIVLGSPSFLSGRRYWEVEVGDKTAWILGACKTSISRKGNITLSPENGYWVVIMVKENEYQASSVPPTRLLIKEPPKRVGIFVDYRVGSISFYNVTARSHIYTFASCSFSGPLQPIFSPGTRDGGKNTAPLTICPVGGQGPD
Regarding B4, the binding entry in experiment [8] is listed as “binds”.
